Measured values published in doi:10.1101/230706.
Results are given in words; binding and its absence hold for the method and conditions named. Binding seen in cells or lysates may run through a third protein. Some results given as binding are weak or reduced against the parent protein; the word gives no strength.

The chains behind the UniProt entries cited, without tags or fusion partners.
UniProt Q14980: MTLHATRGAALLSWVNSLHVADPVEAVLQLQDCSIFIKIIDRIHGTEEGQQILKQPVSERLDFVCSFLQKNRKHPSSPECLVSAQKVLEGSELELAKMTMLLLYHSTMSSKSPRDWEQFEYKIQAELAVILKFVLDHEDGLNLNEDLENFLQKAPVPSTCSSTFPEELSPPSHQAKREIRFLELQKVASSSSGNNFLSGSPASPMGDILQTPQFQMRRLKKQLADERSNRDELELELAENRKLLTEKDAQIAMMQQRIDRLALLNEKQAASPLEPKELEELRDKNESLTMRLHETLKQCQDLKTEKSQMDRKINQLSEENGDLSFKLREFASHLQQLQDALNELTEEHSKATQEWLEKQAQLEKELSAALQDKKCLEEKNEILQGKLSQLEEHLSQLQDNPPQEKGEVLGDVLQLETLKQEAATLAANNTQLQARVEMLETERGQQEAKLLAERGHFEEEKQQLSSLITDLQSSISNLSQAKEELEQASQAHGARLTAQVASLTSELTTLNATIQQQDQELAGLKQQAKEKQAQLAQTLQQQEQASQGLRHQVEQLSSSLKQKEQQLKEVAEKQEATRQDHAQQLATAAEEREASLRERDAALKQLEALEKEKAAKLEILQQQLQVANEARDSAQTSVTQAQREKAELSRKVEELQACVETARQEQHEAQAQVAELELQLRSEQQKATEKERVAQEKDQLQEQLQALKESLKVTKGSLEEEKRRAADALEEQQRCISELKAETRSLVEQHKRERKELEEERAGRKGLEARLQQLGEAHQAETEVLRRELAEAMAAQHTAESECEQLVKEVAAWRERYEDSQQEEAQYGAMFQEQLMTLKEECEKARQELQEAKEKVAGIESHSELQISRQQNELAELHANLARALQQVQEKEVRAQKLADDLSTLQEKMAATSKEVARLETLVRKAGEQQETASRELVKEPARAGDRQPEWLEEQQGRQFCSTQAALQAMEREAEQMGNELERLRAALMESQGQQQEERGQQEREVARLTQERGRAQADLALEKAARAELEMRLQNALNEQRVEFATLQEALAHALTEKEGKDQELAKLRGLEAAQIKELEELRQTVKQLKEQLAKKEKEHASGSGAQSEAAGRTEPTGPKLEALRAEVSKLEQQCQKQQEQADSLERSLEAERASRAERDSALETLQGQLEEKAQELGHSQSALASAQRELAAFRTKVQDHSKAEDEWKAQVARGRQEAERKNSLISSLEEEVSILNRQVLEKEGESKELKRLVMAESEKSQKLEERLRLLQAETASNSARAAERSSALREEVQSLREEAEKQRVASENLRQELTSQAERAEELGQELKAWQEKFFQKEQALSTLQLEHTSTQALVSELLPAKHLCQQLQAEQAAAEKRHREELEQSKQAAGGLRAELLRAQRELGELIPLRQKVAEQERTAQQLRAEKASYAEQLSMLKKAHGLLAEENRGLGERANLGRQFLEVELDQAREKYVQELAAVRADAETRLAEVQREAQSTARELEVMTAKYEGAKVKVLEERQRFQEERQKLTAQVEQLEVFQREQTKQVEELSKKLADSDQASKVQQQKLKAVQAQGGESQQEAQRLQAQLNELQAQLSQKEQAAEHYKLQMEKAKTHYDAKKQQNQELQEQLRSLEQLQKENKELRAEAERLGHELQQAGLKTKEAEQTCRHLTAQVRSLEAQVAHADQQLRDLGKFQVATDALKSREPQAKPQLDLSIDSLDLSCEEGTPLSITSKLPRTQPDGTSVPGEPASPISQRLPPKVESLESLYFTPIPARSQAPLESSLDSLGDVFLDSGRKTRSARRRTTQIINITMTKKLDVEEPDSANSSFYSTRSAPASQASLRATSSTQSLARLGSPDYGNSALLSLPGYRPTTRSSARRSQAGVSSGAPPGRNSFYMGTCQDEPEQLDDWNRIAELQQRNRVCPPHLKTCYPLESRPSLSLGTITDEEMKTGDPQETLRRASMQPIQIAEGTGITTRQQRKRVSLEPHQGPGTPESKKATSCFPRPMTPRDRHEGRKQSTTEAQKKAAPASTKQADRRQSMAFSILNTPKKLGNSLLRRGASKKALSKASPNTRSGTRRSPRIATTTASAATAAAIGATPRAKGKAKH
UniProt Q12888: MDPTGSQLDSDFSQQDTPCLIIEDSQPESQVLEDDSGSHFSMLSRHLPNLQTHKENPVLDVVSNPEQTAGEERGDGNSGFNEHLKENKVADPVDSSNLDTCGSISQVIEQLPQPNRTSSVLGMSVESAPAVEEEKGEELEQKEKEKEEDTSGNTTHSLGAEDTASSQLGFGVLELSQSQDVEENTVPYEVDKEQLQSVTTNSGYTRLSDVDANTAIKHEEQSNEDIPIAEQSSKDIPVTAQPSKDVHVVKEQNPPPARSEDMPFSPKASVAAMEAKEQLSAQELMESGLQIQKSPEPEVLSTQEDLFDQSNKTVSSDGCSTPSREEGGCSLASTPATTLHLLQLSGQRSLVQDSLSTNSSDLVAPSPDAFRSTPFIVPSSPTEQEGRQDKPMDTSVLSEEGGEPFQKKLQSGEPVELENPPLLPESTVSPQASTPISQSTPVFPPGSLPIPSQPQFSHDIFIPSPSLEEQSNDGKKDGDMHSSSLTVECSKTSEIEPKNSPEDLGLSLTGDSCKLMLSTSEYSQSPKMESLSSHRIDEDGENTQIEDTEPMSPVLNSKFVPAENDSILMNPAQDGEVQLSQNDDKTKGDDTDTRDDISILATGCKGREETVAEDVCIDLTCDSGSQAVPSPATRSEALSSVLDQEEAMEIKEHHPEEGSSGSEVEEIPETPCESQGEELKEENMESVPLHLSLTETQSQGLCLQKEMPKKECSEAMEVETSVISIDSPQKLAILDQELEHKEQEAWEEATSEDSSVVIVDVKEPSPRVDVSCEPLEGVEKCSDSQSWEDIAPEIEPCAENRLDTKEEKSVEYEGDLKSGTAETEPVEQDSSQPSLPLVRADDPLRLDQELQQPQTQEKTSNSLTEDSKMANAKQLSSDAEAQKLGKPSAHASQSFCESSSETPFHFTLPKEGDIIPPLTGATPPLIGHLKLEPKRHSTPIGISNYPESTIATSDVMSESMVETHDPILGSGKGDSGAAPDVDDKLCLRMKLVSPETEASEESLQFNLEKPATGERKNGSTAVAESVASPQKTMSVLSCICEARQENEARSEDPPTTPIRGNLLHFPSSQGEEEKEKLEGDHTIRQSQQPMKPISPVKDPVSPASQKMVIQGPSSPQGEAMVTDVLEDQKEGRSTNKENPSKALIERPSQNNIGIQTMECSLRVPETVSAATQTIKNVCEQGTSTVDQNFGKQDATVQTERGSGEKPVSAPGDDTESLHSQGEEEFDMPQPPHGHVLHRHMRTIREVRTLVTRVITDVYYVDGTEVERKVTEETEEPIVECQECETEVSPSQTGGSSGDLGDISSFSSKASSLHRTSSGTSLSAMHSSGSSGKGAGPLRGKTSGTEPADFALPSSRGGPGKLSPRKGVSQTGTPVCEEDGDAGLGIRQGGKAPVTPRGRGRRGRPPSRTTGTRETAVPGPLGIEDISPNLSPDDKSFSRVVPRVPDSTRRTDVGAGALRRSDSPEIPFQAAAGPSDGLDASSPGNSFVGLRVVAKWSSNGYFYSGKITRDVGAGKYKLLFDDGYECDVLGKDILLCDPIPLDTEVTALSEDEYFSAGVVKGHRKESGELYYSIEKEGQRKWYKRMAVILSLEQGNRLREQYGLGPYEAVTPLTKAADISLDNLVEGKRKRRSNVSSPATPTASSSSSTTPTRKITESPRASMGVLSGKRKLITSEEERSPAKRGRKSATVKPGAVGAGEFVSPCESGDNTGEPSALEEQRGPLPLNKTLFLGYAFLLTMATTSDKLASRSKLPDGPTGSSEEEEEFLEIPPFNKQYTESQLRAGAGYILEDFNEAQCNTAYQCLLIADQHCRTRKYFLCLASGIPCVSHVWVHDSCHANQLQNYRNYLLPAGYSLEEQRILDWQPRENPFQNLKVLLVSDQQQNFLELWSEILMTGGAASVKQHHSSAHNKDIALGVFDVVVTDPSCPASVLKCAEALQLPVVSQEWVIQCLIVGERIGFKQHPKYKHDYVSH

How the values were obtained:
[1] = target: endogenous nuclear mitotic apparatus protein (NuMA) (human (endogenous in U2OS, HMT-3522 S1, T4-2 and MCF7)) (UniProt Q14980); test: FRET or BRET
[2] = target: endogenous nuclear mitotic apparatus protein (NuMA) (human (endogenous in U2OS, HMT-3522 S1, T4-2 and MCF7)) (UniProt Q14980); test: co-IP
[3] = target: GFP-53BP1 (UniProt Q12888); test: FRET or BRET

Substance	binding [1]	binding [2]	binding [3]
endogenous 53BP1 (from UniProt Q12888 1-1972)	binds	binds	–
mCherry-NuMA (from UniProt Q14980 1-2115)	–	–	binds
